Laboratory results: patent publication US8829202B2, “Condensed polycyclic aromatic compound, aromatic polymer, and method for synthesizing aromatic compound” (Teijin Limited, priority 2011, dated 2014)

Assay: Organic semiconductor characteristics (FET) of device with solution-cast thin layer
[1] = organic semiconductor device of Example A-3

In the case of “Di-triisopropylsilylacetylene-substituted dinaphthothienothiophene [di-TIPS-substituted DNTT]”, the carrier mobility [1] was 1×10^−3 cm^2/Vs, the on/off ratio [1] was 10^5 and the threshold voltage [1] was −26 V. For the same substance, the semiconductor behavior (organic semiconductor device of Example A-3, film cast from 0.2 wt % chloroform solution) was “p-type semiconductor behavior”.
